Measurements: the supplement of paper PMC10849652
This is one part of the list.

By UniProt entry, the sequences of proteins in these tests, tags left out. Where a name states a change or a piece, a line headed by the entry shows the natural chain unless it says otherwise.
UniProt Q5HYJ3: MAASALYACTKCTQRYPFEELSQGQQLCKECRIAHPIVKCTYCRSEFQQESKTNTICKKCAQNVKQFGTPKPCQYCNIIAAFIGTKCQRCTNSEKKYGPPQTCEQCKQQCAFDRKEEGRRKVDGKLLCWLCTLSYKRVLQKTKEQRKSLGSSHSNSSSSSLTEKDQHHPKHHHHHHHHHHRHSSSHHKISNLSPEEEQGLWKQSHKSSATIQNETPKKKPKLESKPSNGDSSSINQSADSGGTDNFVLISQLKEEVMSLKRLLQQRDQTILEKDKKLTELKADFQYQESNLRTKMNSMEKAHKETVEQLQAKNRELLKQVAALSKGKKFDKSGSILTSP
UniProt Q9Y5Y0: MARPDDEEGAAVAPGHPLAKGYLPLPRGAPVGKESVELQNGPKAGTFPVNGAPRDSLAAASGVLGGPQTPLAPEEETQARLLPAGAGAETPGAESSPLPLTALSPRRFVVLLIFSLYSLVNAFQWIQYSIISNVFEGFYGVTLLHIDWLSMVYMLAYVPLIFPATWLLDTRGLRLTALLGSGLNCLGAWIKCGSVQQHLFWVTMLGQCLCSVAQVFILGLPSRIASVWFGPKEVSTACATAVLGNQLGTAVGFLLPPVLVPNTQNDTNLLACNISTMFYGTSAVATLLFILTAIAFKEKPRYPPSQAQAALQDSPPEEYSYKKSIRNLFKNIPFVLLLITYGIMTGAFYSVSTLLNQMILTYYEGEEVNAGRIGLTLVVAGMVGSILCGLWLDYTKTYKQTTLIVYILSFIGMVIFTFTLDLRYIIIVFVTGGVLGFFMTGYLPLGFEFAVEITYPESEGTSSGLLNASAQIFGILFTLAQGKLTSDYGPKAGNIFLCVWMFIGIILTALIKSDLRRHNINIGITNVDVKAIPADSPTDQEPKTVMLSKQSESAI
UniProt P02751, whole entry, looked up: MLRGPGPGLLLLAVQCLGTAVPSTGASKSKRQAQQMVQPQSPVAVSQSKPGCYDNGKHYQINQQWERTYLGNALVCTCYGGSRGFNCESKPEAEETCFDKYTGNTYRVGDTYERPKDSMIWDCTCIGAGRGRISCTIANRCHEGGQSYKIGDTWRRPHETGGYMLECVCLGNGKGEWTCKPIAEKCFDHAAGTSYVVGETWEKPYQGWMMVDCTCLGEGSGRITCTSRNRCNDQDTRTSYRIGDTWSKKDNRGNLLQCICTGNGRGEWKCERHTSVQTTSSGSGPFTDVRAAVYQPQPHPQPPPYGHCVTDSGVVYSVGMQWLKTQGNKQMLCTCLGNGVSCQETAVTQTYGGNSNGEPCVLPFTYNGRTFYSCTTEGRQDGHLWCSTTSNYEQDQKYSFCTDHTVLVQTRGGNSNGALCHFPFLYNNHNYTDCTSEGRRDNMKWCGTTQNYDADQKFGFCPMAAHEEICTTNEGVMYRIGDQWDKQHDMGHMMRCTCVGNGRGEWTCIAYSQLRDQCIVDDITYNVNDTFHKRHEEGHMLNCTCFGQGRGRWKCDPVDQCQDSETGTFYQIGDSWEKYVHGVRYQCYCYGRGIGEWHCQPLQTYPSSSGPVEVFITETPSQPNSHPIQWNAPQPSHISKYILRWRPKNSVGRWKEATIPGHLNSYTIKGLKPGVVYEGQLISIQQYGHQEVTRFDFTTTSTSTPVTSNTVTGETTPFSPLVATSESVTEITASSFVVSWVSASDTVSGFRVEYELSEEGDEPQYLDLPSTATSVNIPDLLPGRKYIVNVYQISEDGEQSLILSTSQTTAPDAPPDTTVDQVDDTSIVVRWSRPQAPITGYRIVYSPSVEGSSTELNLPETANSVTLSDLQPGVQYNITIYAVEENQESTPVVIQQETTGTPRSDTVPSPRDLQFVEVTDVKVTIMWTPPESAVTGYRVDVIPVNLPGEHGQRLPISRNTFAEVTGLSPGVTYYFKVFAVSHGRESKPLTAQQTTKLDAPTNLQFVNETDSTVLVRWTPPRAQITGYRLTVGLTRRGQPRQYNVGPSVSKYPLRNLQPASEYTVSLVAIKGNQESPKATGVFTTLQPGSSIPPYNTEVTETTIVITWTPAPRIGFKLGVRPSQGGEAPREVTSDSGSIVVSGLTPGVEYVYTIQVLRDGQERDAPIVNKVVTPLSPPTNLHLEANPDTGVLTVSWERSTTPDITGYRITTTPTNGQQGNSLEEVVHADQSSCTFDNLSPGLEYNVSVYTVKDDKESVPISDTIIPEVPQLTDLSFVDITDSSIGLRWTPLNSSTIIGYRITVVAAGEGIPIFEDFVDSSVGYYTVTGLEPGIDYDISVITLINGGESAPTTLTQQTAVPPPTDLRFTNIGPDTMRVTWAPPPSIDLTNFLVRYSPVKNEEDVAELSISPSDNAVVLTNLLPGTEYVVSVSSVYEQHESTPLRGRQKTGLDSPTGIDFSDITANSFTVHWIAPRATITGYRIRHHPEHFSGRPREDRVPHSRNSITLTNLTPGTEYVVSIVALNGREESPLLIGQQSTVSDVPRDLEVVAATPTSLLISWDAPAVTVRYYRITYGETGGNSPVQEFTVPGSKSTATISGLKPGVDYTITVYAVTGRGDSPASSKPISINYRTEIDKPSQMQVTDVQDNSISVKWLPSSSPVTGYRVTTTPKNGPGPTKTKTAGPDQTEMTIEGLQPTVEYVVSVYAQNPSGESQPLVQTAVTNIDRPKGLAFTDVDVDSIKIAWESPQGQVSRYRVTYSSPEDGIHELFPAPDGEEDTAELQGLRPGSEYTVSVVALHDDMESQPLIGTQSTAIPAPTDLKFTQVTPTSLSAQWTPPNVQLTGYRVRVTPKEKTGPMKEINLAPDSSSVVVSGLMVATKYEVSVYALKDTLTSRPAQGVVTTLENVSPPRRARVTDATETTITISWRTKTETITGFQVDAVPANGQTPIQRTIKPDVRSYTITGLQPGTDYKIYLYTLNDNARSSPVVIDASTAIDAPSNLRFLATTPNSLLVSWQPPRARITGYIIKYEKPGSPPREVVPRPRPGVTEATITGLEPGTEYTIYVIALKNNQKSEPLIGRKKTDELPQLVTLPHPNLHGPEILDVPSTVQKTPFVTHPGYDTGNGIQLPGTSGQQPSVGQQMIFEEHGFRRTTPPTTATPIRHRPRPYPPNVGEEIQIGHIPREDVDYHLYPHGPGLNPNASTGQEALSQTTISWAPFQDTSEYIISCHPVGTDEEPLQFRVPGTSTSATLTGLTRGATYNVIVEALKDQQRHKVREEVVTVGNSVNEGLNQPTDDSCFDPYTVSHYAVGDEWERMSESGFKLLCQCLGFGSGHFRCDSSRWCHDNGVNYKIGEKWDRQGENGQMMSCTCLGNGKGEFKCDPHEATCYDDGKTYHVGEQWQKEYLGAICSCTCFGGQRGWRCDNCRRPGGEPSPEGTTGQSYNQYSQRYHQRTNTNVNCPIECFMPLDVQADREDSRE
UniProt P35916, whole entry, looked up: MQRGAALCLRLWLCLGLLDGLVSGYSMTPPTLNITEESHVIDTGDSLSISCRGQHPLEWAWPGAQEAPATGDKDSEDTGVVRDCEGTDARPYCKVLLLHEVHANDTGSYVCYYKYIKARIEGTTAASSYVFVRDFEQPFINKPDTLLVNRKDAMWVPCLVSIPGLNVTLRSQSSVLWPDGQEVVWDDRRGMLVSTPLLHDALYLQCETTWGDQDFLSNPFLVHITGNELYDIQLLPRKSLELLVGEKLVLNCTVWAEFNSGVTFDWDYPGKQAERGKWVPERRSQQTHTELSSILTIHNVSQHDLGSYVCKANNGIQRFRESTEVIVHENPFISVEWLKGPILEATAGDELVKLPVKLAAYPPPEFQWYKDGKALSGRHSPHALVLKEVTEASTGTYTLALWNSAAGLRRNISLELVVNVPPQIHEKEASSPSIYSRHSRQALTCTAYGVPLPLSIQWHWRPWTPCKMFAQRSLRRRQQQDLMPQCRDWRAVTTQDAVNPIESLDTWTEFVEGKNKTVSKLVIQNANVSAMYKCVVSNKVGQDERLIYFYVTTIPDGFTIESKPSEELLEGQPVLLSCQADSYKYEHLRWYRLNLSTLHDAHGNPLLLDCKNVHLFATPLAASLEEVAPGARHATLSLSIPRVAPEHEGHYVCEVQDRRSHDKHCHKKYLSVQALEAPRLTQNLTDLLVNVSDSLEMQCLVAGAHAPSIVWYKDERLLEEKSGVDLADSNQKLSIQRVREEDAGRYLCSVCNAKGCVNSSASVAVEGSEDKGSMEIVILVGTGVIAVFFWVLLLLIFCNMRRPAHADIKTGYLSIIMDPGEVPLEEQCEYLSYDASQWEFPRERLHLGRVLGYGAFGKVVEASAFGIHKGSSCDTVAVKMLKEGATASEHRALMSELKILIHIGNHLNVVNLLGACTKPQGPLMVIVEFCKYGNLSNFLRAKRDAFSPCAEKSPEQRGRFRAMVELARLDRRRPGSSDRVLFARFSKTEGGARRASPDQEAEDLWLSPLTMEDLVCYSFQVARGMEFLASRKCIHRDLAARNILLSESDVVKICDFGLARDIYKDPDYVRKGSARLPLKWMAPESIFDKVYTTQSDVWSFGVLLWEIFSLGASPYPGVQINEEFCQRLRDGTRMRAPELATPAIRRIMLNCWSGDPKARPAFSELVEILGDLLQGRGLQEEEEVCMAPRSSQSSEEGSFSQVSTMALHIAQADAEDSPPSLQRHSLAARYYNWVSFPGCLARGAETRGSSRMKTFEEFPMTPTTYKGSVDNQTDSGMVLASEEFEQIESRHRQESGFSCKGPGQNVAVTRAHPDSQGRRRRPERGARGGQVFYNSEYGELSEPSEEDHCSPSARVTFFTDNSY
UniProt Q9Y421: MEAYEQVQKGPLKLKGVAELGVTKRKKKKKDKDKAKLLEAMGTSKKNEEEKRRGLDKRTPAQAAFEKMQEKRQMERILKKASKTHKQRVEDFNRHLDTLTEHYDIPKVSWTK
UniProt Q8WVX9: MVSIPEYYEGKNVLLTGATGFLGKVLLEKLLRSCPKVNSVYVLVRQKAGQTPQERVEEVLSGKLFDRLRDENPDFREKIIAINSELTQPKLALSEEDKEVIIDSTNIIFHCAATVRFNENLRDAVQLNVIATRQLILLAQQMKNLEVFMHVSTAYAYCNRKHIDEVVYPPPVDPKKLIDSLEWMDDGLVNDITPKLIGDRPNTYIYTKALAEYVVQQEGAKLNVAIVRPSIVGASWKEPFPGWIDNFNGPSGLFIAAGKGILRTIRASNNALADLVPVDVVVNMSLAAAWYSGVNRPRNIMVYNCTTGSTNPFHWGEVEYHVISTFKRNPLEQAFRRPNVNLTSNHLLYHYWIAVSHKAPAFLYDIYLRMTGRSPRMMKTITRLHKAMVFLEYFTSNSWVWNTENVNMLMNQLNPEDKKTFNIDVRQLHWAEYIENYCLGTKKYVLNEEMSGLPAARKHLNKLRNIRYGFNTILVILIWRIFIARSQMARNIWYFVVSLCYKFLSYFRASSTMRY
UniProt Q5T1M5: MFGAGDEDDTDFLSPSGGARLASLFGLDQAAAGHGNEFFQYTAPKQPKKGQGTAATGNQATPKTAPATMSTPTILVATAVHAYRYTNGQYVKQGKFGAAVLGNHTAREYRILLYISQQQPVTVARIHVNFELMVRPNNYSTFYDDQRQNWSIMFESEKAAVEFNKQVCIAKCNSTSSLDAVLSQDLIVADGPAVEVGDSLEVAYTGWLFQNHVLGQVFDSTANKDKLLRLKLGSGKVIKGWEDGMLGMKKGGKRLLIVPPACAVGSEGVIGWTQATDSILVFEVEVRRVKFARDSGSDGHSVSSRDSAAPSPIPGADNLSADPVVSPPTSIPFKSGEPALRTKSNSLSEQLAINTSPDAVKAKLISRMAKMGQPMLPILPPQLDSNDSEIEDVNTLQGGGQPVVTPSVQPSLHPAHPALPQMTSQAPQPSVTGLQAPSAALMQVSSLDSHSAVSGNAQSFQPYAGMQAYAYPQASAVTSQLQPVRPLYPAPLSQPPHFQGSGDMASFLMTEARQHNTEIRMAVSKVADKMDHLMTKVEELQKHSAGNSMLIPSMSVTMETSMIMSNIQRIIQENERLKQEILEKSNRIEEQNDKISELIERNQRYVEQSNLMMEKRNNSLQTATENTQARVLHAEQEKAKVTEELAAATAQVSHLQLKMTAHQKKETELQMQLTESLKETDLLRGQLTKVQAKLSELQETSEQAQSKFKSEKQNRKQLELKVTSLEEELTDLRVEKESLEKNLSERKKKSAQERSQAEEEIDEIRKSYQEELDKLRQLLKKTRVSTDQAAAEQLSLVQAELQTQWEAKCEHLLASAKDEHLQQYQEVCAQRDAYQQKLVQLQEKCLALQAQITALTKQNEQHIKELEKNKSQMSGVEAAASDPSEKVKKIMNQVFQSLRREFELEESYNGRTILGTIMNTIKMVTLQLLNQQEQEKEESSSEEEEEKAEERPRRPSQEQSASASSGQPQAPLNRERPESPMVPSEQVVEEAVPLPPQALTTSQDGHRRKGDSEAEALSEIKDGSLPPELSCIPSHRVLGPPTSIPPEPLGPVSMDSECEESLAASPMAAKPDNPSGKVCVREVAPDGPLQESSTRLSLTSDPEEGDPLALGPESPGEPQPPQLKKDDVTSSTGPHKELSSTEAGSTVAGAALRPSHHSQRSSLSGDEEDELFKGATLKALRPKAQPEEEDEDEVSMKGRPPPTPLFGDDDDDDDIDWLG

Compound: Cn1cc(-c2ccc3c(c2)CCN3C(=O)Cc2cccc(C(F)(F)F)c2)c2c(N)ncnc21
Assay: log2 fold change, soluble protein after heating vs DMSO (PISA); higher = thermal stabilisation; K562 cells, 10 uM, 30 min; active = over 0.2 and 3.5 SD of the protein, either way, in both replicates (recomputed)
In short: (§1)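 Soluble protein was quantified by TMTpro 16plex LC-MS/MS after channel sums were equalised. It was obtained as the supernatant after 21,000xg for 90 min from pooled aliquots of K562 cells (2×10^6 cells/mL, 10 μM compound, 30 min) heated for 3 min across 48°C-58°C and extracted in PBS with 0.5% NP-40 at 4°C. Thermal stability values are relative to control samples and come from duplicates. They are given as log2 fold changes.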

log2 fold change, inactive:
FBXO22 (UniProt Q8NEZ5) 0.047, FNBP4 isoform 2 (UniProt Q8N3X1) 0.016, FGFR1OP (UniProt O95684) -0.014, FCSK isoform 2 (UniProt Q8N0W3) 0.025, FAM76B (UniProt Q5HYJ3) -0.026, FLVCR1 (UniProt Q9Y5Y0) 0.027, FAM98A (UniProt Q8NCA5) -0.119, FERMT2 isoform 3 (UniProt Q96AC1) -0.05, FN3K (UniProt Q9H479) 0.011, FEM1B (UniProt Q9UK73) -0.015, FN1 isoform 1 (UniProt P02751) 0.176, FN3KRP (UniProt Q9HA64) 0, FIP1L1 (UniProt Q6UN15) -0.104, FLYWCH2 (UniProt Q96CP2) 0.043, FDX1 (UniProt P10109) 0.007, FLOT2 (UniProt Q14254) -0.179, FAM98B (UniProt Q52LJ0) -0.074, FLOT1 (UniProt O75955) -0.25, FBXO5 (UniProt Q9UKT4) 0.047, FLT4 (UniProt P35916) 0.106, FLAD1 (UniProt Q8NFF5) 0.072, FLII (UniProt Q13045) 0.061, FLNB isoform 8 (UniProt O75369) -0.008, FLNC (UniProt Q14315) -0.012, FCGR2C (UniProt P31995) 0.026, FKBP5 (UniProt Q13451) 0.003, FKBP2 (UniProt P26885) 0.016, FHL2 (UniProt Q14192) -0.053, FAM210A (UniProt Q96ND0) -0.105, FAM32A (UniProt Q9Y421) -0.116, FARSB (UniProt Q9NSD9) 0.017, FAM78A (UniProt Q5JUQ0) -0.078, FKBP9 (UniProt O95302) -0.048, FAR1 (UniProt Q8WVX9) 0.006, FBXO30 (UniProt Q8TB52) 0.076, FKBP15 (UniProt Q5T1M5) -0.044, FBLN1 (UniProt P23142) 0.269

Compound: Cn1cc(-c2ccc3nnc(C(F)(F)c4ccc5ncccc5c4)n3n2)cn1
Assay: as above
In short: as §1

log2 fold change, inactive:
FBXO22 (UniProt Q8NEZ5) -0.02, FNBP4 isoform 2 (UniProt Q8N3X1) -0.005, FGFR1OP (UniProt O95684) 0.042, FCSK isoform 2 (UniProt Q8N0W3) 0.019, FAM76B (UniProt Q5HYJ3) 0.035, FLVCR1 (UniProt Q9Y5Y0) 0.046, FAM98A (UniProt Q8NCA5) -0.026, FERMT2 isoform 3 (UniProt Q96AC1) -0.088, FN3K (UniProt Q9H479) 0.018, FEM1B (UniProt Q9UK73) -0.034, FN1 isoform 1 (UniProt P02751) 0.023, FN3KRP (UniProt Q9HA64) 0.006, FIP1L1 (UniProt Q6UN15) -0.038, FLYWCH2 (UniProt Q96CP2) -0.042, FDX1 (UniProt P10109) -0.035, FLOT2 (UniProt Q14254) -0.044, FAM98B (UniProt Q52LJ0) -0.013, FLOT1 (UniProt O75955) -0.005, FBXO5 (UniProt Q9UKT4) -0.134, FLT4 (UniProt P35916) 0.071, FLAD1 (UniProt Q8NFF5) 0.004, FLII (UniProt Q13045) 0.025, FLNB isoform 8 (UniProt O75369) -0.005, FLNC (UniProt Q14315) 0, FCGR2C (UniProt P31995) -0.001, FKBP5 (UniProt Q13451) 0.067, FKBP2 (UniProt P26885) 0.002, FHL2 (UniProt Q14192) 0.007, FAM210A (UniProt Q96ND0) 0.019, FAM32A (UniProt Q9Y421) -0.08, FARSB (UniProt Q9NSD9) 0.012, FAM78A (UniProt Q5JUQ0) 0, FKBP9 (UniProt O95302) 0.036, FAR1 (UniProt Q8WVX9) 0.051, FBXO30 (UniProt Q8TB52) -0.011, FKBP15 (UniProt Q5T1M5) -0.005, FBLN1 (UniProt P23142) -0.051
